In US20240294668A1 (SHANGHAI SYNVIDA BIOTECHNOLOGY, published 2024):
No constants are given. Whether binding was seen depends on the method and setting. A result given as binding can be weak or reduced; the word gives no strength.

Chains of the proteins cited; added tags and fusions are not shown. Lines headed by an entry give the natural chain unless they say otherwise; changes in a name come on top.
UniProt P00740: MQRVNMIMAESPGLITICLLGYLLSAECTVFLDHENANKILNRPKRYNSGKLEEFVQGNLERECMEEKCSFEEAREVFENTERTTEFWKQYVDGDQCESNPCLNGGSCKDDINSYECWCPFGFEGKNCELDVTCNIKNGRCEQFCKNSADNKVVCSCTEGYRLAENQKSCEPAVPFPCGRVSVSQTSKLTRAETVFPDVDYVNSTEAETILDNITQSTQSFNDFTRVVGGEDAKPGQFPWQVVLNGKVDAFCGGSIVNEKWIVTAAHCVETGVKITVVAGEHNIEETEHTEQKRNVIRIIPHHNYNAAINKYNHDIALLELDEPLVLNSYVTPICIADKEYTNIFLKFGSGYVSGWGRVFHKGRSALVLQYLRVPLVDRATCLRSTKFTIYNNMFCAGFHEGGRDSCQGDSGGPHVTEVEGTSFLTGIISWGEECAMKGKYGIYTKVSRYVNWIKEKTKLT

Biological target: human FIXa (activated coagulation factor IX) (human) (UniProt P00740)
Experiment: ELISA screening of hybridoma clones on coated FIXa

binding: binds
B1: FIXa-4 antibody (antibody, V domains shown)
VH: QVTLKESGPGILKPSQTLSLTCSFSGFSLNTPGMGVGWIRQPSGKGLEWLAHIWWDDDKYYNPSLKSQLTISKDTSRNQVFLKITSVDTADTATYYCARSDDVSYALDYWGQGTSVTVSS
VL: DIQMTQSPASLSASVGETVTITCRASENIDSYLAWYQQKQGKSPQLLVYNAKTLADGVPSRFSGSGSGTQFSLKIDSLQPEDFGSHYCQHHDGTTWTFGGGTKLEIK
notes: A subtype test is described, but the isotype and constant regions are not reported; also called anti-FIXa monoclonal antibody; FIX-4 antibody
